Where a chain is given by its changes, count along the chain named. Results are given in words; binding and its absence hold for the method and conditions named. Some entries that bind do so weakly or less than the wild type.
B1: 1024 chimeric IgG1 (antibody, V domains shown)
VH: QVQLQQPGAELVEPGGSVKLSCKASGYTFTSHWMHWVKQRPGQGLEWIGEINPSSGRNNYNEKFKSKATLTVDKSSSTAYMQFSSLTSEDSAVYYCVRYYGYDEAMDYWGQGTSVTVS
VL: DIVMTQAAFSNPVTLGTSASISCRSSKSLLHSNGITYLYWYLQKPGQSPQLLIYQMSNLASGVPDRFSSSGSGTDFTLRISRVEAEDVGVYYCAQNLELPYTFGGGTKLEIKR
B2: 1030 chimeric IgG1 (antibody, V domains shown)
VH: EVQLVESGGGLVKPGGSLKLSCAASGFTFSSYALSWVRQTPERRLEWVASISGVGSTYFPDSVKGRFTMSRDNARNILYLQMSSLRSEDTAMYYCARGSDGYFYAMDYWGQGTSVTVS
VL: DIVLTQSPASLAVSLGQRATISCRASKSVSTSGYSFMHWYQLKPGQPPKLLIYLASNLESGVPARFSGSGSGTDFTLNIHPVEEEDAATYYCQHSREFPLTFGGGTKLEIKR
B3: 992 chimeric IgG1 (antibody, V domains shown)
VH: EVQLQQPGSELVRPGASVKLSCKASGYTFTSYWMHWVKQRPGQGLEWIGNIYPGSRSTNYDEKFKSKATLTVDTSSSTAYMQLSSLTSEDSAVYYCTRNGDYYVSSGDAMDYWGQGTSVTVS
VL: DIQMTQTTSSLSASLGDRVTISCRTSQDIGNYLNWYQQKPDGTVKLLIYYTSRLHSGVPSRFSGSGSGTDFSLTINNVEQEDVATYFCQHYNTVPPTFGGGTKLEIKR
B4: 4382 chimeric IgG1 (antibody, V domains shown)
VH: EVQLQQSGPELVKPGASVKISCTASGYTFTDYYMNWVKQSHGKSLEWIGDINPNNGGTNYNQKWKGKATLTIHKSSSTAYMELRSLTSEDSAVYFCVPGGLRSYFDYWGQGTTLTVS
VL: DIVMTQSLKFMSASVGDRVSITCKASQDVSAAVAWYQQKPGQSPELLIYWASTRHTGVPDRFTGSGSGTDYTLTISSVQAEDLALYYCQQHYTTPPTFGGGTKLEIKR
B5: 4518 chimeric IgG1 (antibody, V domains shown)
VH: EVQLQQSGADLVKPGASVKLSCTTSGFNIKDIFIHWVKERPEQGLEWIGRIDPANDNPKYDPKFQGKATISADTSSNTAYLRLSSLTSEDTAVYYCAGGPAYFDYWGQGTTLTVS
VL: B4 VL with L8H, A13T, T22S, S30I, A34T, E45K, V78M, T93S, P96W
B6: 4385 chimeric IgG1 (antibody, V domains shown)
VH: QVTLKESGAELMKPGASVKLSCKATGYTFTGYWIEWVKQRPGHGLEWIGEILPGSGSTNYNEKFKGEATFTADTSSNTAYMHLSSLTTEDSAIYYCARWGDGSFAYWGQGTLVTVS
VL: DIVMTQSQKFMSTSVGDRVSITCKASQNVGTAVSWYQQKPGQSPKLLIFSTSNRYTGVPDRFTGSGSGTDFTLTISNMQSEDLADYFCQQYRSYPFTFGSGTKLEIKR
B7: 5082 chimeric IgG1 (antibody, V domains shown)
VH: EVQLKESGPGLVKPSQSLSLTCSVTGYSITSAYYWNWIRQFPGNKVEWMGYIGYDGRNTYNPSLKNRISITRDTSKNQFFLKLNSLTTEDTATYYCSREGDYGYSDYWGQGTTLTVS
VL: DIVMTQATSSLSASLGDRVTVSCRASQDINNYLNWYQQKPDGTVKLLIYYTSRLQSGVPSRFSGSGSGIDYSLTISNLEQEDFVTYFCQQSETLPWTFGGGTKLELKR
B8: 4785 chimeric IgG1 (antibody, V domains shown)
VH: EVQLQQSGPELVMPGASVKISCKASGYSFTSYYVHWVKQRPGQGLEWIGWIYPGSGHTKYNEKFKDKATLTADTSSSTAYMQLSSLTSEDSAVYYCARPPYYSNYADVWGTGTTVTVS
VL: DIVMTQSPSSLTVTAGEKVTMSCKSSQSLLNSGNQKNYLTWYQQKPGQPPKLLIYWASTRESGVPDRFTGSGSGTDFTLTISSVQAEDLAVYYCQSDYSYPYTFGGGTKLEIKR
B9: 5096 chimeric IgG1 (antibody, V domains shown)
VH: EVQLQQSGPELVKPGASVKMSCKASGYTFTSYLLHWVKQKPGQGLEWIGYINPYNDGAKYNEKLKGKATLTSDKSSSTAYMEVSSLTSEDSAVYYCAREGDYVRYYGMDYWGQGTSVTVS
VL: DIVLTQSPSSLAVSAGEKVTMSCKSSQSVLYISNERNYLAWYQQKPGQSPKLLIYWASTRKSGVPDRFTGSGSGTDFTLTISSVKAEDLAVYYCHQHLSSYTFGGGTKLEIKR

These binders were tested against EGFR (UniProt P00533) (assay: SPR epitope analysis).

binding, binds:
B1
B2
B3

What follows are binders tested against HER2 (UniProt P04626) (assay: SPR epitope analysis).

binding, binds:
B4
B5
B6

The binders below were run against HER3 (UniProt P21860) (assay: SPR epitope analysis).

binding, binds:
B7
B8
B9

Source: patent US9155802
